Reference: article PMC9321973
Results are given in words; binding and its absence hold for the method and conditions named. In cells and extracts the contact can be indirect. Here binding means that the protein was enriched with, or labelled near, the bait; the list need not be complete.

Chains of the proteins cited; added tags and fusions are not shown. Residues count along the entry.
UniProt P03496, residues 79-230: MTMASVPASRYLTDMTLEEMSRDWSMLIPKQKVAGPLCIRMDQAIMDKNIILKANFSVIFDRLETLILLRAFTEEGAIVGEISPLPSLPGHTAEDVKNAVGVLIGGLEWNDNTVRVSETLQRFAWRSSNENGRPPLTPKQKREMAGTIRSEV

B1: Tripartite motif-containing protein 29 (protein, UniProt Q14134 1-588)
chain: MEAADASRSNGSSPEARDARSPSGPSGSLENGTKADGKDAKTTNGHGGEAAEGKSLGSALKPGEGRSALFAGNEWRRPIIQFVESGDDKNSNYFSMDSMEGKRSPYAGLQLGAAKKPPVTFAEKGELRKSIFSESRKPTVSIMEPGETRRNSYPRADTGLFSRSKSGSEEVLCDSCIGNKQKAVKSCLVCQASFCELHLKPHLEGAAFRDHQLLEPIRDFEARKCPVHGKTMELFCQTDQTCICYLCMFQEHKNHSTVTVEEAKAEKETELSLQKEQLQLKIIEIEDEAEKWQKEKDRIKSFTTNEKAILEQNFRDLVRDLEKQKEEVRAALEQREQDAVDQVKVIMDALDERAKVLHEDKQTREQLHSISDSVLFLQEFGALMSNYSLPPPLPTYHVLLEGEGLGQSLGNFKDDLLNVCMRHVEKMCKADLSRNFIERNHMENGGDHRYVNNYTNSFGGEWSAPDTMKRYSMYLTPKGGVRTSYQPSSPGRFTKETTQKNFNNLYGTKGNYTSRVWEYSSSIQNSDNDLPVVQGSSSFSLKGYPSLMRSQSPKAQPQTWKSGKQTMLSHYRPFYVNKGNGIGSNEAP
B2: Probable ATP-dependent RNA helicase DDX47 (protein, UniProt Q9H0S4 1-455)
chain: MAAPEEHDSPTEASQPIVEEEETKTFKDLGVTDVLCEACDQLGWTKPTKIQIEAIPLALQGRDIIGLAETGSGKTGAFALPILNALLETPQRLFALVLTPTRELAFQISEQFEALGSSIGVQSAVIVGGIDSMSQSLALAKKPHIIIATPGRLIDHLENTKGFNLRALKYLVMDEADRILNMDFETEVDKILKVIPRDRKTFLFSATMTKKVQKLQRAALKNPVKCAVSSKYQTVEKLQQYYIFIPSKFKDTYLVYILNELAGNSFMIFCSTCNNTQRTALLLRNLGFTAIPLHGQMSQSKRLGSLNKFKAKARSILLATDVASRGLDIPHVDVVVNFDIPTHSKDYIHRVGRTARAGRSGKAITFVTQYDVELFQRIEHLIGKKLPGFPTQDDEVMMLTERVAEAQRFARMELREHGEKKKRSREDAGDNDDTEGAIGVRNKVAGGKMKKRKGR
B3: Zinc finger CCCH-type antiviral protein 1-like (protein, UniProt Q96H79 1-300)
chain: MAEPTVCSFLTKVLCAHGGRMFLKDLRGHVELSEARLRDVLQRAGPERFLLQEVETQEGLGDAEAEAAAGAVGGGGTSAWRVVAVSSVRLCARYQRGECQACDQLHFCRRHMLGKCPNRDCWSTCTLSHDIHTPVNMQVLKSHGLFGLNENQLRILLLQNDPCLLPEVCLLYNKGEALYGYCNLKDKCNKFHVCKSFVKGECKLQTCKRSHQLIHAASLKLLQDQGLNIPSVVNFQIISTYKHMKLHKMLENTDNSSPSTEHSQGLEKQGVHAAGAAEAGPLASVPAQSAKKPCPVSCEK
B4: 2-Methoxy-6-polyprenyl-1,4-benzoquinol methylase, mitochondrial (protein, UniProt Q5HYK3 43-327)
chain: LSQEKRAAETHFGFETVSEEEKGGKVYQVFESVAKKYDVMNDMMSLGIHRVWKDLLLWKMHPLPGTQLLDVAGGTGDIAFRFLNYVQSQHQRKQKRQLRAQQNLSWEEIAKEYQNEEDSLGGSRVVVCDINKEMLKVGKQKALAQGYRAGLAWVLGDAEELPFDDDKFDIYTIAFGIRNVTHIDQALQEAHRVLKPGGRFLCLEFSQVNNPLISRLYDLYSFQVIPVLGEVIAGDWKSYQYLVESIRRFPSQEEFKDMIEDAGFHKVTYESLTSGIVAIHSGFKL
B5: 14-3-3 protein gamma (protein, UniProt P61981 1-247)
chain: MVDREQLVQKARLAEQAERYDDMAAAMKNVTELNEPLSNEERNLLSVAYKNVVGARRSSWRVISSIEQKTSADGNEKKIEMVRAYREKIEKELEAVCQDVLSLLDNYLIKNCSETQYESKVFYLKMKGDYYRYLAEVATGEKRATVVESSEKAYSEAHEISKEHMQPTHPIRLGLALNYSVFYYEIQNAPEQACHLAKTAFDDAIAELDTLNEDSYKDSTLIMQLLRDNLTLWTSDQQDDDGGEGNN
B6: Keratinocyte proline-rich protein (protein, UniProt Q5T749 1-579)
chain: MCDQQQIQCRLPLQQCCVKGPSFCSSQSPFAQSQVVVQAPCEMQIVDCPASCPVQVCQVSDQAPCQSQTTQVKCQSKTKQVKGQAQCQSKTTQVKGQAASQSQTSSVQSQAPCQSEVSYVQCEASQPVQTCFVECAPVCYTETCYVECPVQNYVPCPAPQPVQMYRGRPAVCQPQGRFSTQCQYQGSYSSCGPQFQSRATCNNYTPQFQLRPSYSSCFPQYRSRTSFSPCVPQCQTQGSYGSFTEQHRSRSTSRCLPPPRRLQLFPRSCSPPRRFEPCSSSYLPLRPSEGFPNYCTPPRRSEPIYNSRCPRRPISSCSQRRGPKCRIEISSPCCPRQVPPQRCPVEIPPIRRRSQSCGPQPSWGASCPELRPHVEPRPLPSFCPPRRLDQCPESPLQRCPPPAPRPRLRPEPCISLEPRPRPLPRQLSEPCLYPEPLPALRPTPRPVPLPRPGQCEIPEPRPCLQPCEHPEPCPRPEPIPLPAPCPSPEPCRETWRSPSPCWGPNPVPYPGDLGCHESSPHRLDTEAPYCGPSSYNQGQESGAGCGPGDVFPERRGQDGHGDQGNAFAGVKGEAKSAYF

target: 3×FLAG-tagged N-terminus-truncated NS1 protein (amino acids 79–230) of influenza A virus PR8(H1N1) (influenza virus A/PR8/34 (H1N1)) (UniProt P03496); assay: affinity purification with mass spectrometry

Binder	binding
B1	binds
B2	binds
B3	binds
B4	binds
B5	binds
B6	binds
